Source: the supplement of paper PMC12823440, “Inhibitors supercharge kinase turnover through native proteolytic circuits” (Nature, 2025)
Counter-ions that a name gives are not always drawn. This is one part of the list. Hit calls seldom repeat between salt and free forms of one compound.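 Kinases, fused to nanoluciferase, were expressed in K562 cells; luminescence was measured every 4 h from 2 to 18 h as percent of control (DMSO = 100%, positive control = 0%). A time point is decreased if signal falls significantly (2 sigma). Hits were called by the authors by a rule that is not shown; the count of time points alone does not decide it.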

Sequences of proteins named here, by UniProt entry; tags and fusion partners are left off. A change or cut given only in a name is not applied to a line headed by its entry.
UniProt P07947, whole entry, looked up: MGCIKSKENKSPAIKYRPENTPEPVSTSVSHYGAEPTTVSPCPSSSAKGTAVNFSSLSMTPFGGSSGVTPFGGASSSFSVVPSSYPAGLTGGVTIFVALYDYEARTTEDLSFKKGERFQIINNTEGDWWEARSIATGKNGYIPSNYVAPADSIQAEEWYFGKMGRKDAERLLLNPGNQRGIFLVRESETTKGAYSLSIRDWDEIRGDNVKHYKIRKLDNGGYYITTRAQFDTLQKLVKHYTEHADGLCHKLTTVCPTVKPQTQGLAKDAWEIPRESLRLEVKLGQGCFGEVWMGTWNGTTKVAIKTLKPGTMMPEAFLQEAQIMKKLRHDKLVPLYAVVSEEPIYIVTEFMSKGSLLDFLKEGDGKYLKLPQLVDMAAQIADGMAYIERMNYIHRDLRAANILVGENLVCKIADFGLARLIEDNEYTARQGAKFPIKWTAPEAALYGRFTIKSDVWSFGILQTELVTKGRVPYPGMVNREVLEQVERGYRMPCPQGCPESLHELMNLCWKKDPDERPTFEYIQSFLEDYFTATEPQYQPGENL
UniProt P43403: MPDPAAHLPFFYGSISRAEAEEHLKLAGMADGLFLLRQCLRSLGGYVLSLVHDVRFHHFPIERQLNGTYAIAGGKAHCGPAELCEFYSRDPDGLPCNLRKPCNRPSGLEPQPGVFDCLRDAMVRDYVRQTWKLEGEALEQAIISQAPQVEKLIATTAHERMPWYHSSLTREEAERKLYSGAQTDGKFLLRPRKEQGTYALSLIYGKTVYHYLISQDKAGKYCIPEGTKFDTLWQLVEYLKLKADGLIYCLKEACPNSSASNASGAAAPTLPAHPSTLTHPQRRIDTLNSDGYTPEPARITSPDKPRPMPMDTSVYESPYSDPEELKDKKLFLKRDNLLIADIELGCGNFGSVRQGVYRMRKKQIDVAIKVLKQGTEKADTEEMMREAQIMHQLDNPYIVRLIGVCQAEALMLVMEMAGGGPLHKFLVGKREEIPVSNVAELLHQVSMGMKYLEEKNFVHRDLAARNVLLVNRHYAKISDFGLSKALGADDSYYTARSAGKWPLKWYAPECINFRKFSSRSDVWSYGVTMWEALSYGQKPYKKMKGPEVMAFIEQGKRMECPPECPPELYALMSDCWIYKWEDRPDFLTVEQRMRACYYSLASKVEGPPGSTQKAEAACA
UniProt P11802: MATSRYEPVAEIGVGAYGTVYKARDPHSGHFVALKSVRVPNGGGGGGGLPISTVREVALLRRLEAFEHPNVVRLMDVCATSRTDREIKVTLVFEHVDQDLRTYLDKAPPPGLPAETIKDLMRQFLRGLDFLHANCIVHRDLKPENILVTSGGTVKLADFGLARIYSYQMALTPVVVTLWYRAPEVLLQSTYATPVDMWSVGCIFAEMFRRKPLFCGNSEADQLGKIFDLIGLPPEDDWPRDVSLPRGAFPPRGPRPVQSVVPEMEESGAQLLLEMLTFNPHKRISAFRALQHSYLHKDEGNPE
UniProt P50613: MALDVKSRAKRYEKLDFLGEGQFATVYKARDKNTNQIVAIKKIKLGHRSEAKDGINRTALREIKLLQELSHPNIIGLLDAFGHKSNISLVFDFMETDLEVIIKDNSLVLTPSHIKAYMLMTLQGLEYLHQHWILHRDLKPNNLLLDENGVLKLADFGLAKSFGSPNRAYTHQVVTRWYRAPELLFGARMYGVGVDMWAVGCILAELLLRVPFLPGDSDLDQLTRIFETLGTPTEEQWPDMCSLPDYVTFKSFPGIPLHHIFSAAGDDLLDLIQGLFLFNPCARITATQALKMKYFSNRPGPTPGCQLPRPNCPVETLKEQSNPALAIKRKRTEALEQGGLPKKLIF
UniProt P50750, whole entry: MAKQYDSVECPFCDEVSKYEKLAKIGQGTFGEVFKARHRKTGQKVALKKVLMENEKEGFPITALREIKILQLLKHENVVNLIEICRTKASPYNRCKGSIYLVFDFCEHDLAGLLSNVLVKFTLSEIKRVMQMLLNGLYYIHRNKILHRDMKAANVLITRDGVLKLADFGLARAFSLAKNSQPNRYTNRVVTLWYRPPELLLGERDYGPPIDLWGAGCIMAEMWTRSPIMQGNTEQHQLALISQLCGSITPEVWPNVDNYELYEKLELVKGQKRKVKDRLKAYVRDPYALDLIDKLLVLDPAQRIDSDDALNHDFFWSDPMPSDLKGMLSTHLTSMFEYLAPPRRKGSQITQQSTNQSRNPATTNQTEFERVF

Experiments:
Details in all cases: K562; 2-18 h
[1] = molecular target: YES1 (UniProt P07947); assay: number of time points (of 5) at which kinase-Nluc abundance scored as decreased, DMSO-normalised (count); higher = more persistent destabilization
[2] = molecular target: ZAK (UniProt Q9NYL2); assay: as above
[3] = molecular target: ZAP70 (UniProt P43403); assay: as above
[4] = molecular target: CDK4 (UniProt P11802); assay: number of time points (of 4; 2 h point missing) at which kinase-Nluc abundance scored as decreased, DMSO-normalised (count); higher = more persistent destabilization
[5] = molecular target: CDK7 (UniProt P50613); assay: as above
[6] = molecular target: CDK9 (UniProt P50750); assay: as above

| SMILES | number of time points [1] | number of time points [2] | number of time points [3] | number of time points [4] | number of time points [5] | number of time points [6] |
| --- | --- | --- | --- | --- | --- | --- |
| CCCCNc1ncc(C(=O)NCc2ccc(-n3ccnc3)cc2)c(NC2CCC(O)CC2)n1 (stereo not drawn) (10 µM) | 0 | 0 | 0 | 0 | 0 | 0 |
| Nc1nc(Nc2ccc3c(c2)CC[C@@H](N2CCCC2)CC3)nn1-c1cc2c(nn1)-c1ccccc1CCC2 [Bemcentinib] (2.5 µM) | 0 | 0 | 0 | 0 | 0 | 0 |
| CCOc1cc(=O)[nH]cc1-c1ccc(CC(=O)Nc2cc(C(C)(C)C(F)(F)F)on2)c(F)c1 (10 µM) | 0 | 0 | 0 | 0 | 0 | 0 |
| CC(C1CC1)n1cnc2c(NCc3cccc(C(F)(F)F)c3)nc(NCCN(C)C)nc21 (stereo not drawn) (10 µM) | 0 | 0 | 0 | 0 | 0 | 0 |
| CN1CCN(c2ccc(-c3ccncc3-c3cc(F)c(O)c(F)c3)cc2)CC1 (10 µM) | 0 | 0 | 0 | 0 | 0 | 0 |
| O=C(O)c1c[nH]c2cc(Cl)c(-c3ccc(C4(O)CCC4)cc3)cc12 (10 µM) | 0 | 0 | 0 | 0 | 0 | 0 |
| Nc1ccc(C(=O)Nc2cccc(-c3nc(N4CCOCC4)c4oc5ncccc5c4n3)c2)cn1 (10 µM) | 0 | 0 | 0 | 0 | 0 | 0 |
| N#C/C(=C/c1ccc(O)c(O)c1)C(=O)N1CCc2ccccc21 [Tyrphostin AG 528] (10 µM) | 0 | 0 | 0 | 0 | 0 | 0 |
| O=C1CCC(N2C(=O)c3cccc(OCCCCCOc4ccc(CC(=O)Nc5cc(C6CCC6)[nH]n5)cc4)c3C2=O)C(=O)N1 (stereo not drawn) [PROTAC CDK9 Degrader-1] (10 µM) | 0 | 0 | 0 | 0 | 1 | 0 |
| COc1cc2ncnc(Nc3cc(Br)c(O)c(Br)c3)c2cc1OC (2.5 µM) | 0 | 0 | 0 | 0 | 0 | 0 |
| COc1ccc(CN2CCC(c3ccc4nc(C(=O)N5CCN(Cc6ccc(C(F)(F)F)cc6)CC5)[nH]c4c3)CC2)cn1 (2.5 µM) | 0 | 0 | 0 | 0 | 1 | 0 |
| O=C(CCl)c1c[nH]c2ccccc12 (2.5 µM) | 0 | 0 | 0 | 0 | 0 | 0 |
| CN(C[C@@H]1COCCO1)S(=O)(=O)Nc1ccc2ccc3ncc(-c4cnn(C)c4)cc3c(=O)c2c1 (2.5 µM) | 0 | 0 | 0 | 0 | 0 | 0 |
| NC(=O)c1cnc(N[C@@H]2CCCC[C@@H]2N)nc1Nc1cccc(-n2nccn2)c1 (2.5 µM) | 0 | 0 | 0 | 0 | 0 | 0 |
| COc1ccc(Cl)cc1N(CC(=O)Nc1ccc2c(c1)OCO2)S(=O)(=O)c1ccccc1 (2.5 µM) | 0 | 0 | 0 | 0 | 0 | 0 |
| COc1ccc(Br)c(C=O)c1O [6-Bromo-2-hydroxy-3-methoxybenzaldehyde] (10 µM) | 0 | 0 | 0 | 0 | 0 | 0 |
| CC(C)c1cc2c(c(O)c1O)[C@@]13CCCC(C)(C)[C@@H]1C[C@@H]2OC3=O [Carnosol] (2.5 µM) | 0 | 0 | 0 | 0 | 0 | 0 |
| O=S(=O)(c1ccc(O)cc1O)N1Cc2cc(O)cc(O)c2C1 (10 µM) | 0 | 0 | 0 | 0 | 0 | 0 |
| Cc1nn(CC(F)(F)F)cc1Nc1ncc(Br)c(NCc2ccc(S(N)(=O)=O)cc2)n1 (10 µM) | 0 | 0 | 0 | 0 | 0 | 0 |
| CN1CCN(Cc2ccc(-c3cnc4[nH]cc(-c5ccc6[nH]ccc6c5)c4c3)cc2)CC1 (2.5 µM) | 0 | 0 | 0 | 0 | 0 | 0 |
| O=C(Nc1ccc(Cl)cc1)C1CN(C(=O)c2cccc(-c3ccco3)c2)CC(F)(F)C1 (stereo not drawn) (2.5 µM) | 0 | 0 | 0 | 0 | 0 | 0 |
| COc1cc(N2CCC(N3CCN(C)CC3)CC2)ccc1Nc1ncnc(Nc2ccccc2S(=O)(=O)C(C)C)n1 (10 µM) | 0 | 0 | 0 | 0 | 0 | 0 |

Reprinted from above for reference:

| SMILES | number of time points [1] | number of time points [2] | number of time points [3] | number of time points [4] | number of time points [5] | number of time points [6] |
| --- | --- | --- | --- | --- | --- | --- |
| O=C(O)c1c[nH]c2cc(Cl)c(-c3ccc(C4(O)CCC4)cc3)cc12 (10 µM) | 0 | 0 | 0 | 0 | 0 | 0 |
| Nc1ccc(C(=O)Nc2cccc(-c3nc(N4CCOCC4)c4oc5ncccc5c4n3)c2)cn1 (10 µM) | 0 | 0 | 0 | 0 | 0 | 0 |

Additional results follow:

| SMILES | number of time points [1] | number of time points [2] | number of time points [3] | number of time points [4] | number of time points [5] | number of time points [6] |
| --- | --- | --- | --- | --- | --- | --- |
| Fc1ccc(Cl)cc1-c1nc(Nc2ccncc2)c2nccnc2n1 (10 µM) | 0 | 0 | 0 | 0 | 0 | 0 |
| CN1CCC(Nc2ccc(C(=O)Nc3cc(-c4ccc5c(c4)OCO5)[nH]n3)cc2)CC1 (10 µM) | 0 | 0 | 0 | 0 | 0 | 0 |
| CO[C@@H]1[C@H](N(C)C(=O)c2ccccc2)C[C@H]2O[C@]1(C)n1c3ccccc3c3c4c(c5c6ccccc6n2c5c31)C(=O)NC4 [Midostaurin] (2.5 µM) | 0 | 0 | 0 | 0 | 0 | 0 |
| CS[C@@]1(C(=O)Nc2ccc3[nH]nc(-c4ccc(OC(C)C)nc4)c3c2)CCN(CC(=O)N2CC=C(c3ccc(-c4ncn(C)n4)cc3)CC2)C1 (2.5 µM) | 0 | 0 | 0 | 0 | 0 | 0 |
| CCn1c(N)c(C(=O)NC)c(=O)c2ccc(C#CC(C)(O)COC)nc21 (stereo not drawn) (10 µM) | 0 | 0 | 0 | 0 | 0 | 0 |
| CNCCOc1ccccc1C1(Nc2nccn(-c3cc(C(=O)NC4CC4)cc(F)c3C)c2=O)CC1 (10 µM) | 0 | 0 | 0 | 0 | 0 | 0 |
| O=C1OC(COc2ccccc2[N+](=O)[O-])CC1Cc1ccccc1 (stereo not drawn) (10 µM) | 0 | 0 | 0 | 0 | 0 | 0 |
| O=C1NC(=O)C(Cc2c[nH]c3c(Cl)cccc23)N1 (stereo not drawn) [Necroptosis-IN-1] (10 µM) | 0 | 0 | 0 | 0 | 0 | 0 |
| O=C(NCc1ccn[nH]1)c1cc([C@@H]2CCNC[C@H]2COc2ccc3c(c2)OCO3)ccc1F [GRK2-IN-1 (hydrochloride)] (10 µM) | 0 | 0 | 0 | 0 | 0 | 0 |
| Oc1ccc(-c2cnc3ccc(NCc4ccco4)nn23)cc1 [IRAK inhibitor 2] (2.5 µM) | 0 | 0 | 0 | 0 | 0 | 0 |
| NCCNS(=O)(=O)c1ccc(Cl)c2ccncc12 [CKI-7 (free base)] (10 µM) | 0 | 0 | 0 | 0 | 0 | 0 |
| Cc1ncsc1-c1ccc(CNC(=O)[C@@H]2C[C@@H](O)CN2C(=O)[C@@H](NC(=O)COCCOc2ccc(-c3cc(Nc4ccc(OC(F)(F)F)cc4)ncn3)cc2)C(C)(C)C)cc1 (2.5 µM) | 0 | 1 | 0 | 0 | 3 | 1 |
| CN(C)CCOc1cc(-c2cn[nH]c2)ccc1NC(=O)C1COc2ccccc2O1 (stereo not drawn) (10 µM) | 0 | 0 | 0 | 0 | 0 | 0 |
| Cc1ccc(NC(=O)N2CCN(c3nc(N)nc4sc(-c5cccnc5)nc34)CC2)cc1 [PI4KIII beta inhibitor 3] (10 µM) | 0 | 0 | 0 | 0 | 0 | 0 |
| O=C1Cc2ccccc2N1 [Oxindole] (10 µM) | 0 | 0 | 0 | 0 | 0 | 0 |
| Cc1nc(NC(=O)N2CCC[C@H]2C(N)=O)sc1-c1ccnc(C(C)(C)C(F)(F)F)c1 [Alpelisib] (2.5 µM) | 0 | 0 | 0 | 0 | 0 | 0 |
| Cc1nc(Nc2cnn(C3CCNCC3)c2)nc2c1N(C)C(=O)c1cc3ccccc3cc1N2C (2.5 µM) | 0 | 0 | 0 | 0 | 0 | 0 |
| C[C@@H](NC(=O)c1ncnc(N)c1Cl)c1ncc(C(=O)Nc2cc(C(F)(F)F)c(Cl)cn2)s1 (2.5 µM) | 2 | 1 | 0 | 0 | 3 | 2 |
| Cc1ccc2c(NS(=O)(=O)c3ccccc3Cl)cccc2c1Oc1ncccc1-c1ccnc(N[C@H]2CCCNC2)n1 (2.5 µM) | 0 | 0 | 0 | 0 | 0 | 0 |
| CCOc1cc(N2CCC(O)CC2)ccc1Nc1ncc2c(n1)N(C1CCCC1)CCC(=O)N2C (2.5 µM) | 0 | 0 | 0 | 0 | 0 | 0 |
| CS(=O)(=O)c1cccc(CNc2nc(Nc3ccc4c(c3)CCC(=O)N4)ncc2C(F)(F)F)c1 (10 µM) | 0 | 0 | 0 | 0 | 0 | 0 |
